26 compounds from the supplement of paper PMC12542422 can be followed below.

Assay [1] has as its system HeLa K (ENP1 immunofluorescence, +LMB). The experiment in a line: fraction of cells with nucleolar or nucleolar/nucleoplasmic ENP1 signal (MainHitrate); higher = more cells with nucleolar/nuclear readout signal (for ENP1 -LMB: less RNAPI inhibition; for +LMB ENP1 and RP reporters: stronger nuclear/nucleolar retention, i.e. ribosome biogenesis defect). As to conditions: concentration: 1 µM; treatment time: 6 h; ENP1 +LMB; leptomycin B: 20 nM, last 1.5 h.

In assay [2] the test system is HeLa K (ENP1 immunofluorescence, no LMB). Described as above. As to conditions: concentration: 1 µM; treatment time: 6 h; ENP1 -LMB; leptomycin B: none.
In a further assay the test system is HeLa RPS2-YFP reporter. The experiment in a line: fraction of reporter-positive cells with nuclear (nucleolar or nucleolar/nucleoplasmic) RPS2-YFP (MainHitrate); higher = more cells with nucleolar/nuclear readout signal (for ENP1 -LMB: less RNAPI inhibition; for +LMB ENP1 and RP reporters: stronger nuclear/nucleolar retention, i.e. ribosome biogenesis defect). As to conditions: concentration: 1 µM; treatment time: 6 h.

The test system of a further assay is HeLa RPL29-GFP reporter. The experiment in a line: fraction of reporter-positive cells with nuclear (nucleolar or nucleolar/nucleoplasmic) RPL29-GFP (MainHitrate); higher = more cells with nucleolar/nuclear readout signal (for ENP1 -LMB: less RNAPI inhibition; for +LMB ENP1 and RP reporters: stronger nuclear/nucleolar retention, i.e. ribosome biogenesis defect). The following applies: concentration: 1 µM; treatment time: 6 h.

Counter-ions that a name gives are not always drawn. ± gives the standard deviation of the averaged measurements. This is one part of the list. These are raw signals, not scaled to a control.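 Ribosome-assembly readouts in HeLa cells were imaged via ENP1 staining, with or without export block, or inducible tagged ribosomal protein reporters. Machine learning classified per-cell signal location versus solvent (DMSO) controls. Hits surpassed the DMSO false-positive mean by five standard deviations and were visually confirmed; three biological replicates.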

In the case of `CC(C)CN(C[C@@H](O)[C@H](Cc1ccccc1)NC(=O)O[C@H]1CCOC1)S(=O)(=O)c1ccc(N)cc1` [Amprenavir (Agenerase)], the fraction in assay [1] was found to be 0.096 ± 0.093; in assay [2], 0.999 ± 0.0017. Also, the “fraction of reporter-positive cells with nuclear” value (“fraction … with nuclear” for short) with HeLa RPS2-YFP reporter stood at 0.114 ± 0.071; in the assay on HeLa RPL29-GFP reporter it was 0.212 ± 0.062.

Consider `CC(=O)NS(=O)(=O)c1ccc(NC(=O)c2ccccc2C(=O)O)cc1` [Phthalylsulfacetamide], for which the fraction was 0.122 ± 0.13 in assay [1] and 0.9969 ± 0.0054 in assay [2]. The “fraction … with nuclear” value with HeLa RPS2-YFP reporter was 0.161 ± 0.15; with HeLa RPL29-GFP reporter, 0.297 ± 0.26.

`CC(=O)CCCCn1c(=O)c2c(ncn2C)n(C)c1=O` [Pentoxifylline]: the fraction in assay [1] was determined as 0.216 ± 0.28; in assay [2] it was 0.9988 ± 0.0021. Further, the “fraction … with nuclear” value came to 0.128 ± 0.15 with HeLa RPS2-YFP reporter and 0.275 ± 0.2 in the assay on HeLa RPL29-GFP reporter.

As for `NS(=O)(=O)c1cc2c(cc1Cl)NCNS2(=O)=O` [Hydrochlorothiazide], the figures for the fraction in assay [1] and in assay [2] were 0.0664 ± 0.065 and 0.9975 ± 0.0043, respectively. In addition, the “fraction … with nuclear” value turned out to be 0.122 ± 0.062 with HeLa RPS2-YFP reporter and 0.194 ± 0.06 with HeLa RPL29-GFP reporter.

As to `CCOC(=O)CCC(=O)O[C@H]1[C@H](O[C@@H]2[C@@H](C)[C@H](O[C@H]3C[C@@](C)(OC)[C@@H](O)[C@H](C)O3)[C@@H](C)C(=O)O[C@H](CC)[C@@](C)(O)[C@H](O)[C@@H](C)C(=O)[C@H](C)C[C@@]2(C)O)O[C@H](C)C[C@@H]1N(C)C` [Erythromycin Ethylsuccinate], the fraction in assay [1] turned out to be 0.0741 ± 0.046; in assay [2], 0.9955 ± 0.0078. The “fraction … with nuclear” value in the assay with HeLa RPS2-YFP reporter turned out to be 0.129 ± 0.092; with HeLa RPL29-GFP reporter it was 0.235 ± 0.047.

Turning to `CC(C)(OCc1nn(Cc2ccccc2)c2ccccc12)C(=O)O` [Bindarit], the fraction is 0.0723 ± 0.088 in assay [1] and 0.984 ± 0.027 in assay [2]. Besides, the “fraction … with nuclear” value was determined as 0.116 ± 0.07 in the assay on HeLa RPS2-YFP reporter and 0.19 ± 0.019 in the assay on HeLa RPL29-GFP reporter.

Take `Nc1[nH]cnc2ncnc1-2` [Adenine hydrochloride]: the fraction in assay [1] turned out to be 0.1 ± 0.14; in assay [2], 0.994 ± 0.011. Further, the “fraction … with nuclear” value came out at 0.0963 ± 0.069 in the assay with HeLa RPS2-YFP reporter and 0.237 ± 0.087 in the assay with HeLa RPL29-GFP reporter.

As for `Oc1c(Br)cc(Br)c2cccnc12` [Broxyquinoline], the fraction was 0.0443 ± 0.056 in assay [1] and 0.985 ± 0.026 in assay [2]. Besides, the figures for the “fraction … with nuclear” value in the assay with HeLa RPS2-YFP reporter and in the assay on HeLa RPL29-GFP reporter were 0.116 ± 0.087 and 0.203 ± 0.057, respectively.

Turning to `C[C@H]1O[C@H](O[C@H]2[C@H](O)[C@@H](O)[C@@H](O[C@H]3[C@H](O)[C@@H](O)C(O)O[C@@H]3CO)O[C@@H]2CO)[C@H](O)[C@@H](O)[C@@H]1N[C@H]1C=C(CO)[C@@H](O)[C@H](O)[C@H]1O` (some centres undefined) [Acarbose], the fraction in assay [1] was 0.0959 ± 0.13; in assay [2], 0.9989 ± 0.002. Further, the “fraction … with nuclear” value was determined as 0.109 ± 0.065 in the assay on HeLa RPS2-YFP reporter and 0.195 ± 0.054 in the assay on HeLa RPL29-GFP reporter.

Consider `COC(=O)Nc1nc2cc(Sc3ccccc3)ccc2[nH]1` [Fenbendazole (Panacur)], for which the fraction in assay [1] amounted to 0.109 ± 0.15; in assay [2], 0.993 ± 0.012. For the same compound, the “fraction … with nuclear” value with HeLa RPS2-YFP reporter amounted to 0.135 ± 0.097; in the assay on HeLa RPL29-GFP reporter it was 0.254 ± 0.097.

`Cc1cn([C@H]2C[C@H](N=[N+]=[N-])[C@@H](CO)O2)c(=O)[nH]c1=O` [Zidovudine (Retrovir)]: the fraction in assay [1] turned out to be 0.0258 ± 0.023; in assay [2] it was 0.985 ± 0.026. In addition, the “fraction … with nuclear” value with HeLa RPS2-YFP reporter turned out to be 0.111 ± 0.11; in the assay on HeLa RPL29-GFP reporter it was 0.211 ± 0.067.

In the case of `CCCCC(=O)N(Cc1ccc(-c2ccccc2-c2nnn[nH]2)cc1)[C@H](C(=O)O)C(C)C` [Valsartan (Diovan)], the fraction in assay [1] is 0.0818 ± 0.12; in assay [2], 0.989 ± 0.019. Besides, the figures for the “fraction … with nuclear” value in the assay on HeLa RPS2-YFP reporter and with HeLa RPL29-GFP reporter were 0.177 ± 0.087 and 0.229 ± 0.098, respectively.

For `Cc1c(OCC(F)(F)F)ccnc1C[S@@+]([O-])c1nc2ccccc2[nH]1` [Dexlansoprazole], the fraction in assay [1] was 0.122 ± 0.19; in assay [2], 0.988 ± 0.021. The “fraction … with nuclear” value is 0.124 ± 0.11 in the assay with HeLa RPS2-YFP reporter and 0.187 ± 0.056 in the assay with HeLa RPL29-GFP reporter.

As for `COc1ccc2c(c1)C(=O)N(CCc1ccc(S(=O)(=O)NC(=O)NC3CCCCC3)cc1)C(=O)C2(C)C` [Gliquidone], the fraction in assay [1] stood at 0.122 ± 0.18; in assay [2], 0.973 ± 0.046. Moreover, the “fraction … with nuclear” value is 0.132 ± 0.098 in the assay with HeLa RPS2-YFP reporter and 0.225 ± 0.055 in the assay with HeLa RPL29-GFP reporter.

`CCOc1nc2cccc(C(=O)OC(C)OC(=O)OC3CCCCC3)c2n1Cc1ccc(-c2ccccc2-c2nn[nH]n2)cc1` (centres undefined) [Candesartan cilexetil (Atacand)]: the fraction in assay [1] is 0.202 ± 0.31; in assay [2], 0.993 ± 0.012. The results for the “fraction … with nuclear” value in the assay with HeLa RPS2-YFP reporter and with HeLa RPL29-GFP reporter were 0.11 ± 0.054 and 0.235 ± 0.081, respectively.

As for `CC(C)Cc1ccc(C(C)C(=O)O)cc1` (centres undefined) [Ibuprofen (Advil)], the fraction turned out to be 0.432 ± 0.51 in assay [1] and 0.9981 ± 0.0033 in assay [2]. Further, the results for the “fraction … with nuclear” value in the assay with HeLa RPS2-YFP reporter and with HeLa RPL29-GFP reporter were 0.108 ± 0.059 and 0.199 ± 0.074, respectively.

With `COc1cc(OC)c(C(=O)CCCN2CCCC2)c(OC)c1` [Buflomedil HCl], the values for the fraction in assay [1] and in assay [2] were 0.0613 ± 0.08 and 0.977 ± 0.04, respectively. Also, the “fraction … with nuclear” value with HeLa RPS2-YFP reporter was 0.121 ± 0.088; with HeLa RPL29-GFP reporter, 0.221 ± 0.048.

With `Cc1c(O)c(=O)ccn1C` [Deferiprone], the fraction in assay [1] was determined as 0.0382 ± 0.047; in assay [2] it was 0.974 ± 0.045. The “fraction … with nuclear” value came to 0.13 ± 0.077 in the assay with HeLa RPS2-YFP reporter and 0.205 ± 0.045 in the assay on HeLa RPL29-GFP reporter.

As for `Cc1cccc(C)c1OCC(=O)N[C@@H](Cc1ccccc1)[C@@H](O)C[C@H](Cc1ccccc1)NC(=O)[C@H](C(C)C)N1CCCNC1=O` [Lopinavir (ABT-378)], the fraction in assay [1] was 0.109 ± 0.13; in assay [2], 0.9991 ± 0.0015. The “fraction … with nuclear” value in the assay on HeLa RPS2-YFP reporter amounted to 0.105 ± 0.069; in the assay on HeLa RPL29-GFP reporter, 0.206 ± 0.063.

For `C[C@@H]1CC(=O)NN=C1c1ccc(NN=C(C#N)C#N)cc1` [Levosimendan], the fraction in assay [1] worked out at 0.104 ± 0.15; in assay [2], 0.9955 ± 0.0077. Further, the “fraction … with nuclear” value worked out at 0.128 ± 0.11 with HeLa RPS2-YFP reporter and 0.211 ± 0.066 in the assay with HeLa RPL29-GFP reporter.

Regarding `COC(=O)[C@H](Cc1ccccc1)NC(=O)[C@@H](N)CC(=O)O` [Aspartame], the fraction worked out at 0.125 ± 0.19 in assay [1] and 0.991 ± 0.016 in assay [2]. Further, the “fraction … with nuclear” value worked out at 0.0903 ± 0.049 in the assay on HeLa RPS2-YFP reporter and 0.224 ± 0.077 with HeLa RPL29-GFP reporter.

With `N[C@@H](CSCCCO)C(=O)O` [Fudosteine], the figures for the fraction in assay [1] and in assay [2] were 0.0923 ± 0.13 and 0.994 ± 0.01, respectively. Also, the “fraction … with nuclear” value in the assay with HeLa RPS2-YFP reporter is 0.0951 ± 0.077; with HeLa RPL29-GFP reporter, 0.241 ± 0.057.

Consider `CN(c1nccc(=O)[nH]1)C1CCN(c2nc3ccccc3n2Cc2ccc(F)cc2)CC1` [Mizolastine (Mizollen)], for which the fraction is 0.101 ± 0.15 in assay [1] and 0.9943 ± 0.0099 in assay [2]. Also, the “fraction … with nuclear” value in the assay on HeLa RPS2-YFP reporter was determined as 0.103 ± 0.076; with HeLa RPL29-GFP reporter it was 0.228 ± 0.083.

For the compound `Cc1cc(C)nc(NS(=O)(=O)c2ccc(N)cc2)n1` [Sulfamethazine], the fraction in assay [1] was determined as 0.0674 ± 0.089; in assay [2] it was 0.983 ± 0.03. Further, the results for the “fraction … with nuclear” value in the assay on HeLa RPS2-YFP reporter and with HeLa RPL29-GFP reporter were 0.0939 ± 0.059 and 0.172 ± 0.019, respectively.

With `CC(=O)[C@]1(O)Cc2c(O)c3c(c(O)c2[C@@H](O[C@H]2C[C@H](N)[C@H](O)[C@H](C)O2)C1)C(=O)c1ccccc1C3=O` [Idarubicin HCl], the figures for the fraction in assay [1] and in assay [2] were 0.0807 ± 0.13 and 0.769 ± 0.4, respectively. In addition, the “fraction … with nuclear” value in the assay on HeLa RPS2-YFP reporter worked out at 0.124 ± 0.074; in the assay with HeLa RPL29-GFP reporter, 0.627 ± 0.31.

Take `COC(=O)[C@H]1[C@H]2C[C@@H]3c4[nH]c5cc(OC)ccc5c4CCN3C[C@H]2C[C@@H](OC(=O)c2cc(OC)c(OC)c(OC)c2)[C@@H]1OC` [Reserpine]: the fraction in assay [1] was 0.0701 ± 0.065; in assay [2], 0.9988 ± 0.0021. Also, the “fraction … with nuclear” value amounted to 0.121 ± 0.094 in the assay on HeLa RPS2-YFP reporter and 0.194 ± 0.019 in the assay on HeLa RPL29-GFP reporter.
